# Read-outs that look alike come from different tables or passages of the source. Results are given in words; binding and its absence hold for the method and conditions named. Binding seen in cells or lysates may run through a third protein. Here binding means that the protein was enriched with, or labelled near, the bait; the list need not be complete. A no says only that the protein was not detected with the bait.
# By UniProt entry, the sequences of proteins in these tests, tags left out.
# UniProt P24610: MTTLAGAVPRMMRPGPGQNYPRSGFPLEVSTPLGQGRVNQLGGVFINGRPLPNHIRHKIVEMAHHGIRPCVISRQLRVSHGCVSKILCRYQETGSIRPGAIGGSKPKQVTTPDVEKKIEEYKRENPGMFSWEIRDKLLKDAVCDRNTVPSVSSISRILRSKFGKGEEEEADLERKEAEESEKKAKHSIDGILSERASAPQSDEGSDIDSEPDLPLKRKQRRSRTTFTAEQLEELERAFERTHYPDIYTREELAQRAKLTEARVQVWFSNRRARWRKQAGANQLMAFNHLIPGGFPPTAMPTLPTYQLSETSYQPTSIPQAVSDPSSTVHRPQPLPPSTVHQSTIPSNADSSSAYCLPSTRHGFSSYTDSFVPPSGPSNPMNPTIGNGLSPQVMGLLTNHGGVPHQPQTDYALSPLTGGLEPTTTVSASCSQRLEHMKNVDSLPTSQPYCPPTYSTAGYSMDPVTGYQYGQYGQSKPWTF
# UniProt Q99L02: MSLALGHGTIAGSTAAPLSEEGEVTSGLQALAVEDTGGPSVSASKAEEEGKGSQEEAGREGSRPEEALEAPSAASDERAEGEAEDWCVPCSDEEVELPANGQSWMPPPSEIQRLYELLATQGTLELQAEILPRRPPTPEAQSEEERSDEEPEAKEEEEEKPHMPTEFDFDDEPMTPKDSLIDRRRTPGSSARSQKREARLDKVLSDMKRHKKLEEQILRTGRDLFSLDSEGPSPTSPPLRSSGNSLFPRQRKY
# UniProt Q9CWW7: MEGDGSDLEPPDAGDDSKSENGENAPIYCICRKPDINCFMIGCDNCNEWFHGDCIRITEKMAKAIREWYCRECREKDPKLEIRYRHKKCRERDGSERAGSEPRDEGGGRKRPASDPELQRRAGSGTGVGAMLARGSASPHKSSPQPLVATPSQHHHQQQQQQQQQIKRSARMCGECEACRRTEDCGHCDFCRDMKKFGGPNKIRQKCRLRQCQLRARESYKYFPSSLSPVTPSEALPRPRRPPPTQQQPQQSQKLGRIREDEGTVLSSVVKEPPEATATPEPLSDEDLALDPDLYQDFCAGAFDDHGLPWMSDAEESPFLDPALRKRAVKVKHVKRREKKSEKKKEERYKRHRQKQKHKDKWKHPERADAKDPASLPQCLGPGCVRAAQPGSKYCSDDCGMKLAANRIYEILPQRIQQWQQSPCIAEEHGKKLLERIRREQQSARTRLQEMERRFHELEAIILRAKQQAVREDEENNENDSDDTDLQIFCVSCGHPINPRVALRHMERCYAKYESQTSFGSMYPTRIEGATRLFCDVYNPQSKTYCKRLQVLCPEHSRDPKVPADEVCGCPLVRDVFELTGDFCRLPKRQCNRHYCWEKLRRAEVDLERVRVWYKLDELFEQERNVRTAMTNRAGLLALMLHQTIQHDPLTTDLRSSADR
# What was measured:
# PAX3HaFlag [1] = target: PAX3HaFlag (UniProt P24610); test: affinity purification with mass spectrometry; tandem affinity purification of PAX3HaFlag (anti-FLAG M2 then anti-HA magnetic beads, peptide elution) from Benzonase-treated nuclear extracts of 1-day induced EBs; washes with 100 and 200 mM NaCl, 0.1% NP-40; control: IP from the untagged Pax3 line; two purifications
# PAX3HaFlag [2] = target: PAX3HaFlag (UniProt P24610); test: as above; remark: listed apart in the source
Molecule,binding (PAX3HaFlag [1]),binding (PAX3HaFlag [2])
PAGR1A (from UniProt Q99L02 1-253),no binding,–
CXXC1 (from UniProt Q9CWW7 1-660),no binding,–

# Now from value to molecule:
binding (PAX3HaFlag [1]),binding (PAX3HaFlag [2]),Molecule
–,no binding,"CTCF (protein, UniProt Q61164 1-736) MEGEAVEAIVEESETFIKGKERKTYQRRREGGQEEDACHLPQNQTDGGEVVQDVNSSVQMVMMEQLDPTLLQMKTEVMEGTVAPEAEAAVDDTQIITLQVVNMEEQPINIGELQLVQVPVPVTVPVATTSVEELQGAYENEVSKEGLAESEPMICHTLPLPEGFQVVKVGANGEVETLEQGELPPQEDSSWQKDPDYQPPAKKTKKTKKSKLRYTEEGKDVDVSVYDFEEEQQEGLLSEVNAEKVVGNMKPPKPTKIKKKGVKKTFQCELCSYTCPRRSNLDRHMKSHTDERPHKCHLCGRAFRTVTLLRNHLNTHTGTRPHKCPDCDMAFVTSGELVRHRRYKHTHEKPFKCSMCDYASVEVSKLKRHIRSHTGERPFQCSLCSYASRDTYKLKRHMRTHSGEKPYECYICHARFTQSGTMKMHILQKHTENVAKFHCPHCDTVIARKSDLGVHLRKQHSYIEQGKKCRYCDAVFHERYALIQHQKSHKNEKRFKCDQCDYACRQERHMIMHKRTHTGEKPYACSHCDKTFRQKQLLDMHFKRYHDPNFVPAAFVCSKCGKTFTRRNTMARHADNCAGPDGVEGENGGETKKSKRGRKRKMRSKKEDSSDSEENAEPDLDDNEEEEEPAVEIEPEPEPQPQPPPPPQPVAPAPPPAKKRRGRPPGRTNQPKQNQPTAIIQVEDQNTGAIENIIVEVKKEPDAEPAEGEEEEAQAATTDAPNGDLTPEMILSMMDR"
–,binds,"LIM-domain binding protein 1 (LDB1) (protein, UniProt P70662 1-411) MSVGCACPGCSSKSFKLYSPKEPPNGNAFPPFHPGTMLDRDVGPTPMYPPTYLEPGIGRHTPYGNQTDYRIFELNKRLQNWTEECDNLWWDAFTTEFFEDDAMLTITFCLEDGPKRYTIGRTLIPRYFRSIFEGGATELYYVLKHPKEAFHSNFVSLDCDQGSMVTQHGKPMFTQVCVEGRLYLEFMFDDMMRIKTWHFSIRQHRELIPRSILAMHAQDPQMLDQLSKNITRCGLSNSTLNYLRLCVILEPMQELMSRHKTYSLSPRDCLKTCLFQKWQRMVAPPAEPARQQPSKRRKRKMSGGSTMSSGGGNTNNSNSKKKSPASTFALSSQVPDVMVVGEPTLMGGEFGDEDERLITRLENTQFDAANGIDDEDSFNNSPALGANSPWNSKPPSSQESKSENPTSQASQ"
